Where a name gives a salt, the structure may show the parent alone. ± gives the uncertainty stated by the source. This is one part of the list. Part of the spread comes from offsets between plates or batches.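 A heat-shock-induced fluorescent stripe was set in larval rod outer segments at 6 dpf. Shedding distance ran from stripe to outer segment tip, measured by confocal stacks in about three fish per compound. Controls: 0.2% DMSO vehicle. Flagged compounds showed ≥20% change from same-week control, p < 0.001 (Dunnett test on mixed-effects models).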
Key:
[1] = test system: Danio rerio larva rod photoreceptor outer segment; experiment: rod outer segment growth distance Dg, difference from same-week DMSO control mean; higher = more outer segment growth; details: 20 µM; treatment time: 4 days (6-10 dpf)
[2] = test system: Danio rerio larva rod photoreceptor outer segment; experiment: rod outer segment shedding distance Ds, difference from same-week DMSO control mean; higher = less outer segment shedding; details: 20 µM; treatment time: 4 days (6-10 dpf)

SMILES | rod outer segment growth distance Dg [1] | rod outer segment shedding distance Ds [2]
NC(=O)c1ccc(N(C(N)=O)c2c(F)cccc2F)nc1-c1ccc(F)cc1F | 0.22 ± 0.16 um | -0.03 ± 0.14 um
OCCN1C[C@H](O)[C@@H](O)[C@H](O)[C@H]1CO [Miglitol] | -0.78 ± 0.29 um | -0.18 ± 0.23 um
CC(C)c1nc(CN(C)C(=O)N[C@@H](CCN2CCOCC2)C(=O)N[C@H](CC[C@H](Cc2ccccc2)NC(=O)OCc2cncs2)Cc2ccccc2)cs1 [Cobicistat (GS-9350)] | 0.26 ± 0.24 um | -0.2 ± 0.13 um
CN(C)c1nc(N(C)C)nc(N(C)C)n1 [Altretamine] | 0.16 ± 0.15 um | -0.37 ± 0.2 um
COC[C@H](NC(=O)c1cnc(C)s1)C(=O)N[C@@H](COC)C(=O)N[C@@H](Cc1ccccc1)C(=O)[C@@]1(C)CO1 [Oprozomib (ONX 0912)] | -0.61 ± 0.18 um | 0.16 ± 0.13 um
O=C(c1ccc(OCCCc2c[nH]cn2)cc1)C1CC1 [Ciproxifan] | -0.69 ± 0.19 um | -1.03 ± 0.13 um
Cc1c(C(=O)N2CCOc3ccc(-c4ccc(N)nc4)cc3C2)ccc(S(C)(=O)=O)c1F | -0.08 ± 0.17 um | -0.31 ± 0.12 um
CCCCC1C(=O)N(c2ccccc2)N(c2ccccc2)C1=O [Phenylbutazone] | 0.73 ± 0.16 um | 0.49 ± 0.19 um
C[C@@H](c1ncncc1F)[C@](O)(Cn1cncn1)c1ccc(F)cc1F [Voriconazole] | -0.36 ± 0.16 um | -0.14 ± 0.18 um
CC(C)(C)[N+]([O-])=Cc1ccc(S(=O)(=O)O)cc1S(=O)(=O)O | 1.11 ± 0.23 um | 0.6 ± 0.2 um
Cc1ccc2c(=O)c3cccc(CC(=O)O)c3oc2c1C [DMXAA (Vadimezan)] | -0.06 ± 0.13 um | -0.51 ± 0.16 um
Oc1ccc(-c2nc(-c3ccc(F)cc3)c(-c3ccncc3)[nH]2)cc1 | 0.63 ± 0.3 um | -0.48 ± 0.42 um
CC(C)(C)c1cnc(CSc2cnc(NC(=O)C3CCNCC3)s2)o1 | -1.21 ± 0.35 um | -0.54 ± 0.28 um
CC(=O)O[C@H]1C[C@@H]2CC[C@@H]3[C@H](CC[C@@]4(C)[C@H]3C[C@H]([N+]3(C)CCCCC3)[C@@H]4OC(C)=O)[C@@]2(C)C[C@@H]1N1CCCCC1 [Vecuronium Bromide] | 0.26 ± 0.16 um | -0.22 ± 0.17 um
O=S(=O)(O)CCS [Mesna] | -0.54 ± 0.22 um | -0.08 ± 0.18 um
CCc1cc(C(N)=S)ccn1 [Ethionamide] | -0.16 ± 0.25 um | -0.2 ± 0.14 um
NC(=O)OCC(COC(N)=O)c1ccccc1 [Felbamate] | 1.83 ± 0.19 um | -0.35 ± 0.2 um
NNc1nncc2ccccc12 [Hydralazine HCl] | -0.38 ± 0.27 um | -0.55 ± 0.17 um
Nc1ccn([C@@H]2O[C@H](CO)[C@@H](O)C2(F)F)c(=O)n1 [Gemcitabine] | 0.8 ± 0.31 um | -0.26 ± 0.19 um
N#CCNC(=O)c1ccc(-c2ccnc(Nc3ccc(N4CCOCC4)cc3)n2)cc1 | -1 ± 0.21 um | 1.15 ± 0.29 um
Clc1ccc2nsnc2c1NC1=NCCN1 [Tizanidine HCl] | -1.05 ± 0.18 um | 0.01 ± 0.19 um
O=c1c(-c2ccc(O)cc2)coc2cc(O)cc(O)c12 [Genistein] | 0.5 ± 0.32 um | 0.61 ± 0.23 um
CC(C)[C@H](N)C(=O)OCCOCn1cnc2c(=O)nc(N)[nH]c21 [Valaciclovir HCl] | 0.98 ± 0.18 um | 0.32 ± 0.27 um
N#Cc1ccc2[nH]c(O)c(-c3ccc(CN4CCOCC4)cn3)c2c1 | -0.75 ± 0.29 um | -1.23 ± 0.4 um
O=c1[nH]c(=O)n([C@H]2C[C@H](O)[C@@H](CO)O2)cc1C(F)(F)F [Trifluridine] | -0.72 ± 0.21 um | -0.19 ± 0.13 um

Part of the list above, as tab-separated lines.
SMILES	rod outer segment growth distance Dg [1]	rod outer segment shedding distance Ds [2]
CCCCC1C(=O)N(c2ccccc2)N(c2ccccc2)C1=O [Phenylbutazone]	0.73 ± 0.16 um	0.49 ± 0.19 um
C[C@@H](c1ncncc1F)[C@](O)(Cn1cncn1)c1ccc(F)cc1F [Voriconazole]	-0.36 ± 0.16 um	-0.14 ± 0.18 um
CC(C)(C)[N+]([O-])=Cc1ccc(S(=O)(=O)O)cc1S(=O)(=O)O	1.11 ± 0.23 um	0.6 ± 0.2 um
Cc1ccc2c(=O)c3cccc(CC(=O)O)c3oc2c1C [DMXAA (Vadimezan)]	-0.06 ± 0.13 um	-0.51 ± 0.16 um
Oc1ccc(-c2nc(-c3ccc(F)cc3)c(-c3ccncc3)[nH]2)cc1	0.63 ± 0.3 um	-0.48 ± 0.42 um
CC(C)(C)c1cnc(CSc2cnc(NC(=O)C3CCNCC3)s2)o1	-1.21 ± 0.35 um	-0.54 ± 0.28 um
CC(=O)O[C@H]1C[C@@H]2CC[C@@H]3[C@H](CC[C@@]4(C)[C@H]3C[C@H]([N+]3(C)CCCCC3)[C@@H]4OC(C)=O)[C@@]2(C)C[C@@H]1N1CCCCC1 [Vecuronium Bromide]	0.26 ± 0.16 um	-0.22 ± 0.17 um
O=S(=O)(O)CCS [Mesna]	-0.54 ± 0.22 um	-0.08 ± 0.18 um
CCc1cc(C(N)=S)ccn1 [Ethionamide]	-0.16 ± 0.25 um	-0.2 ± 0.14 um
NC(=O)OCC(COC(N)=O)c1ccccc1 [Felbamate]	1.83 ± 0.19 um	-0.35 ± 0.2 um

(more compounds)

SMILES | rod outer segment growth distance Dg [1] | rod outer segment shedding distance Ds [2]
Nc1ccn([C@H]2CC[C@@H](CO)O2)c(=O)n1 [Zalcitabine] | 0.78 ± 0.26 um | -0.01 ± 0.15 um
O=C1NC(=O)C(c2ccccc2[N+](=O)[O-])=C1Nc1ccc(O)c(Cl)c1 | -0.12 ± 0.14 um | -0.6 ± 0.11 um
NC(=O)c1cccnc1 [Nicotinamide (Vitamin B3)] | 1.18 ± 0.23 um | 0.61 ± 0.27 um
C#Cc1cccc(Nc2ncnc3cc(OC)c(OCCCCCCC(=O)NO)cc23)c1 | -0.06 ± 0.21 um | -1.62 ± 0.27 um
COc1cc2c(cc1O)CC[C@@H]1[C@@H]2CC[C@]2(C)[C@@H](O)CC[C@@H]12 [2-Methoxyestradiol (2-MeOE2)] | -1.1 ± 0.24 um | 0.19 ± 0.29 um
CN(C)c1ccc(C(=O)NCCCCCCC(=O)NO)cc1 | 0.13 ± 0.14 um | 0.04 ± 0.13 um
COc1cc2c(Nc3ccc(NC(=O)c4ccccc4)cc3)ncnc2cc1OCCCN1CCOCC1 | -1.03 ± 0.2 um | -0.28 ± 0.21 um
CO[C@@H](C(=O)N1Cc2[nH]nc(NC(=O)c3ccc(N4CCN(C)CC4)cc3)c2C1)c1ccccc1 | -0.41 ± 0.15 um | -0.1 ± 0.21 um
CCc1c(C(=O)NCCc2ccc(N3CCCCC3)cc2)[nH]c2ccc(Cl)cc12 | -1.5 ± 0.21 um | 0.47 ± 0.16 um
CC(N)C12CC3CC(CC(C3)C1)C2 (stereo not drawn) [Rimantadine] | 0.69 ± 0.28 um | -0.1 ± 0.27 um
N=C(N)NC(=N)N1CCOCC1 [Moroxydine HCl] | 0.33 ± 0.22 um | 0.53 ± 0.28 um
C[C@H](CCC(=O)O)[C@H]1CC[C@H]2[C@@H]3[C@@H](O)C[C@@H]4C[C@H](O)CC[C@]4(C)[C@H]3CC[C@]12C [Ursodiol] | -1.23 ± 0.22 um | 0.76 ± 0.15 um
O=c1cc(-c2ccccc2)oc2cc(O)cc(O)c12 [Chrysin] | -0.17 ± 0.37 um | -0.69 ± 0.38 um
OC[C@H]1O[C@@H](Oc2ccc(O)cc2)[C@H](O)[C@@H](O)[C@@H]1O [Arbutin] | 0.35 ± 0.27 um | -0.37 ± 0.42 um
CCOC(=O)N1c2ccc(C(F)(F)F)cc2[C@@H](N(Cc2cc(C(F)(F)F)cc(C(F)(F)F)c2)C(=O)OC)C[C@H]1CC [Torcetrapib] | -0.44 ± 0.17 um | 0.1 ± 0.13 um
COc1ccc(S(=O)(=O)Nc2cccnc2Nc2ccc(O)cc2)cc1 | -1.8 ± 0.24 um | -0.13 ± 0.25 um
CC1Cc2ccccc2N1NC(=O)c1ccc(Cl)c(S(N)(=O)=O)c1 (stereo not drawn) [Indapamide] | 0.79 ± 0.29 um | -0.2 ± 0.21 um
Nc1nccc2c1ncn2C1C=C(CO)C(O)C1O (stereo not drawn) [3-Deazaneplanocin A (DZNeP)] | -0.25 ± 0.19 um | 0.08 ± 0.28 um
CCc1cc2c(cc1N1CCC(N3CCOCC3)CC1)C(C)(C)c1[nH]c3cc(C#N)ccc3c1C2=O | -0.63 ± 0.14 um | -0.25 ± 0.14 um
CCCCCCNC(=O)n1cc(F)c(=O)[nH]c1=O [Carmofur] | -0.34 ± 0.17 um | -0.86 ± 0.21 um
CC1(C)O[C@@H]2[C@@H](CO[C@@]3(COS(N)(=O)=O)OC(C)(C)O[C@@H]23)O1 [Topiramate] | -0.88 ± 0.17 um | -0.02 ± 0.2 um
Nc1ccc(O)c(C(=O)O)c1 [Mesalamine] | -0.24 ± 0.19 um | 0.41 ± 0.17 um
CC(C)Cn1cnc2c(N)nc3ccccc3c21 [Imiquimod] | 0.68 ± 0.21 um | -0.38 ± 0.22 um
NC(=O)c1ncn([C@@H]2O[C@H](CO)[C@@H](O)[C@H]2O)n1 [Ribavirin] | 0.08 ± 0.23 um | -0.37 ± 0.27 um
COc1ccc2[nH]cc(CCNC(C)=O)c2c1 [Melatonin] | 0.37 ± 0.19 um | -2.26 ± 0.23 um

SMILES | rod outer segment growth distance Dg [1] | rod outer segment shedding distance Ds [2]
CC(C)CC(=O)Nc1n[nH]c2c1CN(C(=O)C1CCN(C)CC1)C2(C)C | -0.01 ± 0.16 um | -0.53 ± 0.19 um
C=C1C(=O)[C@]23[C@H](O)[C@H]1CC[C@H]2[C@@]12CO[C@]3(O)[C@@H](O)[C@@H]1C(C)(C)CC[C@@H]2O [Oridonin] | -2.57 ± 1.1 um | -3.47 ± 1.1 um
COc1cc2nc(N3CCN(C(=O)c4ccco4)CC3)nc(N)c2cc1OC [Prazosin HCl] | -0.67 ± 0.16 um | -0.13 ± 0.19 um
CNC(=O)c1ccc2cc([C@@]3(O)CCn4cncc43)ccc2c1 [TAK-700 (Orteronel)] | -0.17 ± 0.18 um | -1.88 ± 0.27 um
Cn1c(=O)c2[nH]cnc2n(C)c1=O [Aminophylline] | 0.71 ± 0.19 um | -0.36 ± 0.19 um
Nc1nc(NCCNc2ncc(-n3ccnc3)c(-c3ccc(Cl)cc3Cl)n2)ccc1[N+](=O)[O-] | -0.48 ± 0.16 um | -0.7 ± 0.11 um
O=c1c(O)c(-c2ccc(O)c(O)c2)oc2cc(O)ccc12 [Fisetin] | 0.55 ± 0.29 um | 0.7 ± 0.3 um
CNS(=O)(=O)Cc1ccc2[nH]cc(CCN(C)C)c2c1 [Sumatriptan Succinate] | 0.55 ± 0.17 um | -0.04 ± 0.21 um
COc1c2occc2cc2ccc(=O)oc12 [Methoxsalen] | -0.44 ± 0.19 um | -1.59 ± 0.3 um
C[C@H]1C[C@H]2[C@@H]3CCC4=CC(=O)C=C[C@]4(C)[C@@]3(F)[C@@H](O)C[C@]2(C)[C@@]1(O)C(=O)CO [Betamethasone] | -1.4 ± 0.23 um | 0.62 ± 0.18 um
Nc1cccc2c1CN(C1CCC(=O)NC1=O)C2=O (stereo not drawn) [Lenalidomide (CC-5013)] | 0.25 ± 0.19 um | -1.68 ± 0.28 um
C#CCN[C@@H]1CCc2ccccc21 [Rasagiline Mesylate] | 0.4 ± 0.2 um | -0.35 ± 0.24 um
CC(C(=O)O)c1cccc(C(=O)c2ccccc2)c1 (stereo not drawn) [Ketoprofen] | -1.33 ± 0.23 um | 0.32 ± 0.15 um
CN1C2CCCC1CC(NC(=O)c1nn(C)c3ccccc13)C2 (stereo not drawn) [Granisetron HCl] | 0 ± 0.32 um | 0.25 ± 0.21 um
C=C1c2cccc(O)c2C(O)=C2C(=O)[C@]3(O)C(O)=C(C(N)=O)C(=O)[C@@H](N(C)C)[C@@H]3[C@@H](O)[C@H]12 [Methacycline HCl] | 0.22 ± 0.19 um | -0.1 ± 0.18 um
Cc1cn([C@H]2O[C@@H](CO)[C@H](O)[C@H]2F)c(=O)[nH]c1=O [Clevudine] | -1.15 ± 0.24 um | -0.48 ± 0.18 um
CN(C)CCc1c[nH]c2ccc(CS(=O)(=O)N3CCCC3)cc12 [Almotriptan Malate] | 0.17 ± 0.21 um | -0.17 ± 0.26 um
N#C[C@@H]1CCCN1C(=O)CNC12CC3CC(CC(O)(C3)C1)C2 [Vildagliptin (LAF-237)] | -0.23 ± 0.17 um | 0.06 ± 0.17 um
CCC[C@@H]1C[C@@H](C(=O)N[C@@H]([C@H]2O[C@H](SC)[C@H](O)[C@@H](O)[C@H]2O)[C@@H](C)O)N(C)C1 [Lincomycin HCl] | 1.32 ± 0.23 um | 0.55 ± 0.26 um
CCN(CCO)CCCOc1ccc2c(Nc3cc(CC(=O)Nc4cccc(F)c4)[nH]n3)ncnc2c1 [Barasertib (AZD1152-HQPA)] | -0.36 ± 0.28 um | -0.08 ± 0.21 um
O=C(O)CCCN1CCC(O[C@@H](c2ccc(Cl)cc2)c2ccccn2)CC1 [Bepotastine Besilate] | 0.4 ± 0.15 um | 0.05 ± 0.16 um
CC(=O)OCC[N+](C)(C)C [Acetylcholine Chloride] | -0.19 ± 0.21 um | -0.23 ± 0.17 um
Cn1cc(/C=C/C(=O)c2cccc(F)c2)cc1/C=C/C(=O)NO | -0.98 ± 0.16 um | -0.63 ± 0.19 um
Cc1c(Nc2ncccc2C(=O)O)cccc1C(F)(F)F [Flunixin Meglumin] | 0.42 ± 0.21 um | -0.4 ± 0.25 um
